In PMC3507851:
These are yes or no findings as the source states them, for the method shown. Binding seen in cells or lysates may run through a third protein. Some entries that bind do so weakly or less than the wild type.

Protein sequences, listed by entry. Tags and fused reporters are not part of them. Lines headed by an entry give the natural chain unless they say otherwise; changes in a name come on top.
UniProt P15208: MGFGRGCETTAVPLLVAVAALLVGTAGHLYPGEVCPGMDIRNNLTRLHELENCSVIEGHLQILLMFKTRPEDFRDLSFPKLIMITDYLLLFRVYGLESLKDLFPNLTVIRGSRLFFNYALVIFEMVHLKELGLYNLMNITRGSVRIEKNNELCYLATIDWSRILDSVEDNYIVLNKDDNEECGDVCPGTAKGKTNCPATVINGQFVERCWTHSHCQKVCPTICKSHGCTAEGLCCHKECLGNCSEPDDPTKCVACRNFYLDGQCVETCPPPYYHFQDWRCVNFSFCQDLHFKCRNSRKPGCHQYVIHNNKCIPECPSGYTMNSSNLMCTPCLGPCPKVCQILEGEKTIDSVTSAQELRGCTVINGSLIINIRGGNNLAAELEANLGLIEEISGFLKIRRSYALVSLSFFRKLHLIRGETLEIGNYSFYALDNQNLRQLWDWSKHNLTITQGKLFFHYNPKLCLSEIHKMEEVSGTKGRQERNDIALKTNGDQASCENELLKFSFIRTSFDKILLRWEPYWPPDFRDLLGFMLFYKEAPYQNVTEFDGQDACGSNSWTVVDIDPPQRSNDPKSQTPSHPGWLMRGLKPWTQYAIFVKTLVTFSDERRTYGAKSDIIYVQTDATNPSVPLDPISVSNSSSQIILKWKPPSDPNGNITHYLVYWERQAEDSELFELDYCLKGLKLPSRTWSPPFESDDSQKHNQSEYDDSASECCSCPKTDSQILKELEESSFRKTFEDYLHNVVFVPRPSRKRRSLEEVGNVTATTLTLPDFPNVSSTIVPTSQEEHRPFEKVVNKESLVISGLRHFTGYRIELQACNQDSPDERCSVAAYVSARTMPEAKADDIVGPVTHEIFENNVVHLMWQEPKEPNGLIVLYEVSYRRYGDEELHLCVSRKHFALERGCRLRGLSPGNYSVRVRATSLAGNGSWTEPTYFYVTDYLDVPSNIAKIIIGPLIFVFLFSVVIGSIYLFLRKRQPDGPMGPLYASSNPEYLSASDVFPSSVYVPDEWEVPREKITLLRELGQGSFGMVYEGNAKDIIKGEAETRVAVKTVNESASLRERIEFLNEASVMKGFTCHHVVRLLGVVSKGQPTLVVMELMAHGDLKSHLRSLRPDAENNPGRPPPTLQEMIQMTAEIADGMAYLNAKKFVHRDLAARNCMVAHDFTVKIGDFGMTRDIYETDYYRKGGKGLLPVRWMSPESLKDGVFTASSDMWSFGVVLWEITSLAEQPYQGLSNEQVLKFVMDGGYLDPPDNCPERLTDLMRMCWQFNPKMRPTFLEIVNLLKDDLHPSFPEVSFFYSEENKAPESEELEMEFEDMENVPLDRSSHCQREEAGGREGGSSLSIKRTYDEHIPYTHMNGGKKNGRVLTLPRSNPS
UniProt Q60751: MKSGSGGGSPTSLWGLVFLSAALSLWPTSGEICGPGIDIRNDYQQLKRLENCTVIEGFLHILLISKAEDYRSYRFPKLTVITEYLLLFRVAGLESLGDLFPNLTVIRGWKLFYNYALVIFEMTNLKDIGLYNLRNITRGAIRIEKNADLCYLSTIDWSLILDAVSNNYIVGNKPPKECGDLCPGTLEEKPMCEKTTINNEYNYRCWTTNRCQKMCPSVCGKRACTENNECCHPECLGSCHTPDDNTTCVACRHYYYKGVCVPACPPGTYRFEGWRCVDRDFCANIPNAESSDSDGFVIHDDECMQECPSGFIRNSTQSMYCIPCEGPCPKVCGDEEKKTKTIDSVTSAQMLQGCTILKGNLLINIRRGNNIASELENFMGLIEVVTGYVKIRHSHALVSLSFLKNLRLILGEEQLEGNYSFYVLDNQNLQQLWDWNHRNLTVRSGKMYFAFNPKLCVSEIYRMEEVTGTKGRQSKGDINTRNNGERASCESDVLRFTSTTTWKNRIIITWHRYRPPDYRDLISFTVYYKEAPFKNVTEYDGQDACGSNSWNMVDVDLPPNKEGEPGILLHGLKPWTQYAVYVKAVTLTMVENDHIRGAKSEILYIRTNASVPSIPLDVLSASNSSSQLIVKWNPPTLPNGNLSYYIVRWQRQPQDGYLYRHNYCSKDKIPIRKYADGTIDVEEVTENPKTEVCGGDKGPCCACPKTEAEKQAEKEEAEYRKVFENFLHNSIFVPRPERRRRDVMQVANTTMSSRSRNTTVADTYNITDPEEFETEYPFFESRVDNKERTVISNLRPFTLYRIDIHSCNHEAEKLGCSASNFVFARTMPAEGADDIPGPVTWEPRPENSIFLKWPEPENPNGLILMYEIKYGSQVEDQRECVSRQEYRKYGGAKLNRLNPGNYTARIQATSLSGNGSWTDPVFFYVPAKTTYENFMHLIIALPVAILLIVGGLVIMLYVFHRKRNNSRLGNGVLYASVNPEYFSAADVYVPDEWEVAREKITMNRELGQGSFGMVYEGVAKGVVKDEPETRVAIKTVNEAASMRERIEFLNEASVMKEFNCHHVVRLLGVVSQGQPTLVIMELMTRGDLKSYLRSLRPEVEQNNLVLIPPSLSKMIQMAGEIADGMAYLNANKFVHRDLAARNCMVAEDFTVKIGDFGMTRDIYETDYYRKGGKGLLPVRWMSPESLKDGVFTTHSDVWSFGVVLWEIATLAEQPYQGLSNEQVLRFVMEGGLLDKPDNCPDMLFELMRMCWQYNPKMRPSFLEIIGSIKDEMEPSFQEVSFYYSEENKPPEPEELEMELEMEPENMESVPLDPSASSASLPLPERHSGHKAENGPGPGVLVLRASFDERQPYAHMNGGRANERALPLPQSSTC

Columns and labels:
[1] = target: Insulin receptor (mouse (endogenous in MES-13)) (UniProt P15208); assay: co-IP; lysates (0.5 mg) of non-transfected, scrambled oligo (SC) or InsR shRNA transfected MES-13 cells; IP with anti-InsRα or anti-IGF-1Rα antibody, 4°C, 4 hours, protein G-Sepharose; immunoblot for IGF-1Rβ or InsRβ; supernatants of the immunoprecipitates also blotted for IGF-1Rβ (immunodepletion)
[2] = target: Insulin-like growth factor-1 receptor (mouse (endogenous in MES-13)) (UniProt Q60751); assay: as above

binding [1] | binding [2] | Substance
binds | binds | Insulin-like growth factor-1 receptor (from UniProt Q60751 31-737; Q60751 742-1373)
– | binds | Insulin receptor (from UniProt P15208 28-748; P15208 753-1372)
